Experimental data: paper PMC11071249
No constants are given. Whether binding was seen depends on the method and setting. In cells and extracts the contact can be indirect. Some results given as binding are weak or reduced against the parent protein; the word gives no strength.

By UniProt entry, the sequences of proteins in these tests, tags left out.
UniProt Q9Y4B6: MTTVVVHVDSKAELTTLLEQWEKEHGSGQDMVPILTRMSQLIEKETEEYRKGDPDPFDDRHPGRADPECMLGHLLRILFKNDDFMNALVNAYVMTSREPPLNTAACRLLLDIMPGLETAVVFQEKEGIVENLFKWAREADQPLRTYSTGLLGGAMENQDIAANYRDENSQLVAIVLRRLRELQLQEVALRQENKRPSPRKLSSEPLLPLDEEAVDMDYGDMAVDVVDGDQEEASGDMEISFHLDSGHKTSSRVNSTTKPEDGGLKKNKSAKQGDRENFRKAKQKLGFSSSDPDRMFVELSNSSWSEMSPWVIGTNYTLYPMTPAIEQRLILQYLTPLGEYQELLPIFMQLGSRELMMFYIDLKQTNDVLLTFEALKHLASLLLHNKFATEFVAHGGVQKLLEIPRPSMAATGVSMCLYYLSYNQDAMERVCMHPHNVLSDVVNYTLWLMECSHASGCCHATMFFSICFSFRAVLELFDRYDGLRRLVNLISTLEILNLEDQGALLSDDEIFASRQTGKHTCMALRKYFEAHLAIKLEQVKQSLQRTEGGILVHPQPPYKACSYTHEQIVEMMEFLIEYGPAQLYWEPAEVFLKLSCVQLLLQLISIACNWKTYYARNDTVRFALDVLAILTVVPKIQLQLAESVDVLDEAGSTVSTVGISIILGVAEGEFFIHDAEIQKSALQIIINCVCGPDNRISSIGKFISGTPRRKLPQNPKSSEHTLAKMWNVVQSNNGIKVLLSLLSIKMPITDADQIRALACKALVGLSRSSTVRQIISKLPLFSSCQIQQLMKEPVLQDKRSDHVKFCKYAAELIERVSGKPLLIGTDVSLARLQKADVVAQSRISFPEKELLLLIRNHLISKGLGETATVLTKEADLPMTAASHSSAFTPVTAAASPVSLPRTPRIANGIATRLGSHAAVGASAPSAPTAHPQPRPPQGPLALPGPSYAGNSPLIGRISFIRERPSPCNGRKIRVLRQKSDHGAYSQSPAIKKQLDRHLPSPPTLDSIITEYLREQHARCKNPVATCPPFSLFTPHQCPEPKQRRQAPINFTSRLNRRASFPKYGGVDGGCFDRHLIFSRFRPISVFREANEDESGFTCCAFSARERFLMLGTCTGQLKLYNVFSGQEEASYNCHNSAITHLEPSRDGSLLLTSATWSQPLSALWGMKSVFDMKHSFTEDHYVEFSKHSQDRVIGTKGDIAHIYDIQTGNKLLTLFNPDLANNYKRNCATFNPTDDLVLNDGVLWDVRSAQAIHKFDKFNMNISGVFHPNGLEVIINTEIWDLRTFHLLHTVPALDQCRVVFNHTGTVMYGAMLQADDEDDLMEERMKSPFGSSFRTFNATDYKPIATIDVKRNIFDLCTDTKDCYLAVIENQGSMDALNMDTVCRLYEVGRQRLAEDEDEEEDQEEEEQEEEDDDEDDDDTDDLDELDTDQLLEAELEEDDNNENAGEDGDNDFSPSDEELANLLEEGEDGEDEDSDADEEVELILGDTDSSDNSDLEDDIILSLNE
UniProt Q8TEW0: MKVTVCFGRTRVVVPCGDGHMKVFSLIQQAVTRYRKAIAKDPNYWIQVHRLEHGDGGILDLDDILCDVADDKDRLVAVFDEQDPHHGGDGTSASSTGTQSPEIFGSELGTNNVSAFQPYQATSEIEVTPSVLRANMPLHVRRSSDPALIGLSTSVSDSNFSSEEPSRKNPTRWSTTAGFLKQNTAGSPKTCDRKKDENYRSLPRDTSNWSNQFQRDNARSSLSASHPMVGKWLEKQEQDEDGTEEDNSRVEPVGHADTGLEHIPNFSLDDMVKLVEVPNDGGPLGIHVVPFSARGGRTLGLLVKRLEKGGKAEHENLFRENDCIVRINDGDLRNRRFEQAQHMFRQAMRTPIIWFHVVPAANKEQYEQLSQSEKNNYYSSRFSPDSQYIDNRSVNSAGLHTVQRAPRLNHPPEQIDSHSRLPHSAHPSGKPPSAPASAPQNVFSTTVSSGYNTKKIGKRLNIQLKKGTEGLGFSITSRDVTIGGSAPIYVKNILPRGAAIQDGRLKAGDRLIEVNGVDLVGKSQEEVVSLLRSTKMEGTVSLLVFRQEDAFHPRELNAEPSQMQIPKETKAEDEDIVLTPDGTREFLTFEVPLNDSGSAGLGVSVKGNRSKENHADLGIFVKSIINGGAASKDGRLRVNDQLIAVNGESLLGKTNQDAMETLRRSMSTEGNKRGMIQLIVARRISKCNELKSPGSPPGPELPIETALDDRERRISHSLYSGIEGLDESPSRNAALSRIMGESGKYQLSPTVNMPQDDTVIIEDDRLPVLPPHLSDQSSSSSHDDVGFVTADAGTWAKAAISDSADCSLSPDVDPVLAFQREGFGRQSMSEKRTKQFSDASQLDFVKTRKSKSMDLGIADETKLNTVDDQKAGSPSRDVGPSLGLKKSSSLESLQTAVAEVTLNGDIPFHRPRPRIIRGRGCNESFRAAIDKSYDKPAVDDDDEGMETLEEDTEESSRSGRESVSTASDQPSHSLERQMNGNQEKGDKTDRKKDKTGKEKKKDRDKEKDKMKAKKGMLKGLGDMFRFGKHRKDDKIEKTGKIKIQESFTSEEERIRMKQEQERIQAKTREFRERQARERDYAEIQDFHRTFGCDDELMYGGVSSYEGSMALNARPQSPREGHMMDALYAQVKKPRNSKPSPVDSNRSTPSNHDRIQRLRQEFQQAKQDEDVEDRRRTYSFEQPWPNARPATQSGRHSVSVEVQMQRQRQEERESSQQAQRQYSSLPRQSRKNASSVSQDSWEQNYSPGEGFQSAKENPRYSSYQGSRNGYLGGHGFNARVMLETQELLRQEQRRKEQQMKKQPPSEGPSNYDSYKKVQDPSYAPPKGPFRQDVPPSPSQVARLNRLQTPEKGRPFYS

Biological target: DDB1 and CUL4 associated factor 1 (DCAF1) (UniProt Q9Y4B6)
Assay: co-IP; cell lysates incubated with primary antibodies and Protein A + G magnetic beads at 4°C overnight, Western blot; cells not told

“par-3 family cell polarity regulator (PARD3) (from UniProt Q8TEW0 1-1356)” was tested, and the binding was “binds”.
